{"source": "patent US12318449B2", "about": "(Rutgers, The State University of New Jersey, priority 2012, dated 2025)", "key": {"[1]": {"system": "stage III and stage IV melanoma", "conditions": "recent phase 0 trial; cited from earlier work"}, "C8161-luc cells": {"system": "C8161-luc cells", "conditions": "3 weeks of treatment"}}}
{"molecule": "Nc1nc2ccc(OC(F)(F)F)cc2s1", "note": "[Riluzole, riluzole]", "values": [{"measurement": "clinical and metabolic responses", "setting": "[1]", "result": "approximately one third of the patients exhibited remarkable clinical and metabolic responses"}, {"measurement": "tumor cell growth as indicated by luminescent signal", "setting": "C8161-luc cells; riluzole (10 mg/kg) plus irradiation (4 Gy)", "result": "much less tumor cell growth"}, {"measurement": "luminescence (photon flux)", "setting": "C8161-luc cells; riluzole alone (10 mg/kg) compared to vehicle", "result": "decreased luminescence"}]}
